This is an account of results in PubChem BioAssay AID2685 (National Center for Advancing Translational Sciences (NCATS), 2010).

The other results are listed elsewhere or left out. The main result of the screen is listed elsewhere. These columns were measured beside it and carry no call. The list favours compounds with an active or inconclusive main result. The note in brackets gives the kind of curve behind each potency; many fits are weak.

A short description of this experiment: qHTS Assay for Lipid Storage Modulators in Drosophila S3 Cells.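 For cell number change: cells counted by Cell Tracker Red CMTPX staining in the red channel.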 Conditions: BODIPY lipid droplet fluorescence, 18-24 h; for cell number change: measured here: cell count max response, cells fed with added oleic acid. The method, boiled down:
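Drosophila S3 cells loaded with oleic acid (400 uM, as added) and compounds at several concentrations; lipid droplets imaged by 488-nm laser-scanning cytometry, 500–530 nm intensity and object ratio to cell channel. Percent activity normalized to 20 uM Triacsin C.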
(qHTS replaces the single test concentration by a dilution series.)

[1] abbreviates: measured here: lipid fluorescence (Fed channel) AC50, cells fed with added oleic acid.
[2] abbreviates: measured here: cell number channel AC50, cells fed with added oleic acid.

Take `COc1ccc(NC(=O)N2CCN(C(=O)c3ccco3)CC2)c(OC)c1`: the cell number change came to 18.8%.

Consider `COc1cc(C(=O)NCC2CCCO2)cc(Br)c1OCc1ccccc1` (stereo not given), for which the cell number change is -5.19%.

Regarding `O=C(CCCc1c[nH]c2ccccc12)NCc1ccc2c(c1)OCO2`, the cell number change came out at 24.4%. Moreover, the AC50 (commonly the concentration giving half of the maximal activity seen) under setting [1] is 16.4 µM [rising, single point].

As for `O=C(O)Cn1c(=S)sc2ccccc21`, the cell number change was -12%. The AC50 under setting [1] is 0.82 µM [falling, single point].

Take `Cc1ccc([N+](=O)[O-])c(NC2OC(CO)C(O)C2O)c1` (stereo not given): the cell number change is -4.3%. The AC50 under setting [2] is 0.731 µM [falling, single point].

`COc1ccc(-c2c(NC(=O)c3ccco3)oc3c(C)cccc3c2=O)cc1OC`: the cell number change is -13%. In addition, the AC50 under setting [1] is 6.51 µM [rising, single point].

As to `O=C(Cc1ccc(Cl)cc1)Nc1ccc(C(=O)N2CCOCC2)cc1`, the AC50 under setting [2] is 0.00461 µM [rising, full curve, poor fit].

For the compound `O=C(NCCN1C(=O)S/C(=C\c2cccs2)C1=O)c1ccco1`, the cell number change amounted to 23.6%. Also, the AC50 under setting [1] was 0.461 µM [rising, full curve, poor fit].

For the compound `CC(=O)c1cccc(CN2CCC(n3nccc3NC(=O)CCOc3ccccc3)CC2)c1`, the cell number change is 55.9%. Also, the AC50 under setting [1] is 18.4 µM [rising, partial curve].

In the case of `Cc1nn(C)cc1S(=O)(=O)Nc1ncccn1`, the cell number change is 12.4%.

With `Fc1cccc(Cl)c1C1Nc2cccc3cccc(c23)N1`, the cell number change was -53.6%. For the same compound, under setting [2], the AC50 is 9.2 µM [falling, partial curve].

With `COc1ccc(/C=N/N2C(C)CCCC2C)cc1OC` (stereo not given), the cell number change was -0.709%. Also, the AC50 under setting [1] is 3.26 µM [rising, full curve, poor fit].

Turning to `O=C(Cc1ccc2c(c1)OCCO2)c1c(O)cc(O)cc1O`, the cell number change came out at 0.101%. In addition, the AC50 under setting [1] was 0.731 µM [rising, full curve].

Consider `O=S(=O)(c1cc(C(F)(F)F)ccc1Cl)N1CCN(c2ncnc3ccccc23)CC1`, for which the cell number change is -48.3%. In addition, the AC50 under setting [2] is 9.2 µM [falling, partial curve].

Consider `CC1CCN(CCCOc2ccc(Br)cc2Cl)CC1`, for which the cell number change was -6.34%. The AC50 under setting [2] was 0.164 µM [falling, full curve, poor fit]. Further, the AC50 under setting [1] was 29.1 µM [falling, partial curve, poor fit].

As to `Cc1ccc(C)n1-c1ccc(C(=O)NCc2ccncc2)cc1`, the AC50 is 4.11 µM [rising, partial curve, poor fit] under setting [2] and 3.26 µM [rising, single point] under setting [1].

Consider `CCC(=O)Nc1nc2c(c(=O)[nH]1)CCCC2`, for which the half-maximal activity concentration (AC50) under setting [2] is 6.51 µM [falling, single point].

Take `Cc1snc2sc(C(=O)c3ccc(F)cc3)c(N)c12`: the cell number change was found to be 11.2%. Also, the AC50 under setting [1] is 2.91 µM [rising, full curve, poor fit].

On to `COc1cc(OC)cc(C(=O)N[C@H](C(=O)Nc2nc3c(s2)CCCC3)C(C)C)c1`, for which the cell number change turned out to be 4.63%.

Regarding `CCOC(=O)C1=C(C)NC(=O)NC1c1ccc(-c2ccc(F)cc2)o1` (stereo not given), the cell number change amounted to 6.56%.

For the compound `COc1ccc(NC(=O)NC2(C(=O)N3CCN4CCCC4C3)CCCCC2)cc1` (stereo not given), the cell number change is 19.8%. Also, the AC50 under setting [2] is 0.00411 µM [rising, full curve, poor fit]. Besides, under setting [1], the AC50 was 6.51 µM [rising, single point].

As to `CC(C)CC(=O)Nc1ccc2nn(-c3ccccc3)nc2c1`, the cell number change was 23.3%. Also, the AC50 under setting [2] is 0.00461 µM [falling, full curve, poor fit]. The AC50 under setting [1] was 18.4 µM [rising, single point].

`COc1ccc(C(=O)OCC(=O)NCC2CCCO2)cc1` (stereo not given): the cell number change is -6.38%. Moreover, the AC50 under setting [2] is 6.51 µM [rising, single point].

Regarding `CC(=O)NC12CC3CC(CC(CC(=O)O)(C3)C1)C2`, the cell number change was -18.2%. Moreover, the concentration at half-maximal activity (AC50) under setting [1] is 1.64 µM [falling, partial curve, poor fit].

Regarding `CCCc1ccccc1OCCNC(C)=O`, the cell number change amounted to 4.44%. Moreover, the AC50 under setting [2] was 0.58 µM [falling, full curve].

For the compound `CCCCOc1ccc(-c2n[nH]c(=S)n2Cc2ccccc2)cc1`, the cell number change was -54.7%. The AC50 under setting [2] was 18.4 µM [falling, partial curve]. Under setting [1], the AC50 was 23.1 µM [falling, partial curve].

Regarding `CN(C)C(=O)c1cc2cc([N+](=O)[O-])ccc2s1`, the cell number change is -21.8%. Besides, the AC50 under setting [1] was 2.06 µM [falling, partial curve].

As for `COC(CNC(=O)C1CC(=O)N(CCc2ccc(C)cc2)C1)OC` (stereo not given), the cell number change is 20.6%. The AC50 under setting [1] was 29.1 µM [rising, single point].

Consider `CC(NC(=O)C(C)N1C(=O)C2C3CC(C(Br)C3Br)C2C1=O)c1ccccc1` (stereo not given), for which the cell number change is -82.7%. Further, the AC50 under setting [2] is 2.91 µM [falling, full curve].

As for `COc1ccc(Cl)cc1NC(=O)CN(C)C(=O)c1ccc(N2CCCCC2)c([N+](=O)[O-])c1`, the cell number change is -28.8%. Also, the AC50 under setting [1] was 18.4 µM [falling, single point].

In the case of `CC(NC(=O)c1cccc(F)c1)C(c1cccs1)N1CCN(C)CC1` (stereo not given), the cell number change was 148%. Also, the AC50 under setting [2] was 6.51 µM [falling, single point]. Also, under setting [1], the AC50 is 6.51 µM [falling, single point].

As to `Cc1ccc(-c2nc(CSCC(=O)N3CCN(c4ccccn4)CC3)c(C)o2)cc1`, the cell number change stood at 22%. Further, under setting [2], the AC50 was 2.06 µM [rising, partial curve]. Besides, the AC50 under setting [1] was 2.06 µM [rising, partial curve].

Regarding `Cc1cc(C)c2nc(-c3ccccn3)cc(C(=O)NCc3ccco3)c2c1`, the cell number change is -35.5%. Also, the AC50 under setting [2] is 13 µM [falling, partial curve, poor fit]. Under setting [1], the AC50 is 0.517 µM [rising, full curve].

With `CCOC(=O)NC1(C(F)(F)F)NC(=O)N(c2cccc(C(F)(F)F)c2)C1=O` (stereo not given), the cell number change was 13.8%. Besides, under setting [1], the AC50 was 25.9 µM [rising, single point].

Take `C=CC[n+]1c(-c2ccc(Cl)cc2Cl)csc1Nc1c(C)n(C)n(-c2ccccc2)c1=O`: the cell number change was -6.99%.

With `COc1ccc(CN(C)C2CCCCC2)cc1`, the cell number change was found to be 1.18%. Moreover, the AC50 under setting [1] was 29.1 µM [falling, single point].

For the compound `CCC(=O)N(C)CCc1cc2c(c(OC)c1/C=N/NS(=O)(=O)c1ccc(C)cc1)OCO2`, the cell number change is -3.63%. The AC50 under setting [1] is 0.291 µM [rising, partial curve, poor fit].

As for `COCCOCC(O)CN1CCN(c2ccc(C)cc2)CC1` (stereo not given), the cell number change was -1.21%.

As to `CC(C)CCNC(=O)NC(=O)COC(=O)/C=C/c1cccc([N+](=O)[O-])c1`, the AC50 under setting [2] was 0.082 µM [rising, partial curve, poor fit].

Regarding `CC(C)CCN1CCN(Cc2ccc(C#CCCO)cc2)CC1CCO` (stereo not given), the cell number change was -9.41%. Under setting [1], the AC50 is 29.1 µM [falling, single point].

Regarding `CN(CC(=O)Nc1ccc(F)c(F)c1F)C(=O)CN1C(=O)C2CCCCC2C1=O` (stereo not given), the cell number change worked out at 12%.

`COCCN(C(=O)COC(=O)Cc1coc2cc(C)ccc12)c1c(N)n(Cc2ccccc2)c(=O)[nH]c1=O`: under setting [1], the AC50 is 23.1 µM [rising, partial curve].

As to `CCn1c(NC(=O)C(C)C)c2ccccc2nc1=O`, the cell number change was -20.4%. Besides, the AC50 under setting [2] is 0.631 µM [falling, full curve, poor fit]. For the same compound, the AC50 under setting [1] is 10 µM [falling, partial curve, poor fit].

Take `CCOC(=O)N/N=C/c1ccc(F)cc1F`: the cell number change amounted to 81.7%. Under setting [2], the AC50 is 25.9 µM [rising, single point]. Also, the AC50 under setting [1] is 29.1 µM [rising, single point].

As to `Cn1cc(C(=O)c2ccc(Cl)cc2Cl)cc1C(=O)N/N=C(\N)COc1ccc(F)cc1`, the cell number change came out at 37.9%. Further, under setting [2], the AC50 is 1.3 µM [rising, full curve].

For the compound `COc1ccc(C)cc1NS(=O)(=O)c1ccc(Cl)nc1`, the cell number change turned out to be 9.52%. For the same compound, under setting [1], the AC50 was 29.1 µM [rising, single point].

As to `O=C(CNS(=O)(=O)c1ccccc1)Nc1cccc([N+](=O)[O-])c1`, the cell number change was 90.5%. Under setting [2], the AC50 is 6.51 µM [falling, single point]. Moreover, under setting [1], the AC50 was 6.51 µM [falling, single point].

As to `O=C(Nc1nnc(SCCN2CCOCC2)s1)C1CC(=O)N(c2ccc(F)cc2)C1` (stereo not given), the cell number change was 18.1%. Under setting [2], the AC50 was 2.91 µM [rising, partial curve]. Further, under setting [1], the AC50 is 29.1 µM [rising, single point].

Regarding `O=C(CCn1c(=O)[nH]c2ccsc2c1=O)NCc1ccc(F)cc1`, the cell number change is -25.4%.

As to `CN(CC(=O)NC(c1ccccc1)c1ccccc1)Cc1nc2ccccc2c(=O)[nH]1`, the cell number change came out at 2.38%. Under setting [1], the AC50 is 1.03 µM [rising, full curve, poor fit].

As for `CC1CCc2c(C(=O)NCc3cccnc3)csc2C1` (stereo not given), the cell number change is -1.91%. Besides, the AC50 under setting [1] was 32.6 µM [falling, single point].

For the compound `CC(C)C(c1nnnn1CC1CCCO1)N1CCN(C2CCCC2)CC1` (stereo not given), the cell number change was -2.58%. The AC50 under setting [1] is 7.31 µM [falling, partial curve, poor fit].

With `CCC(C)COC(=O)C(C#N)c1nc2ccccc2nc1N1CCCCC1` (stereo not given), the cell number change was 0.419%. The half-maximal activity concentration (AC50) under setting [1] is 0.00461 µM [rising, full curve, poor fit].

Turning to `CC(=O)Nc1ccc2oc(C)nc2c1`, the concentration at half-maximal activity (AC50) under setting [1] is 0.82 µM [falling, single point].

Regarding `CCOc1ccc(/C=N/NC(=O)COc2ccccc2-c2ccccc2)cc1`, the cell number change was -16.1%. The AC50 under setting [1] is 29.1 µM [falling, single point].

`O=C(O)c1cc(S(=O)(=O)Nc2ccc3oc(=O)sc3c2)ccc1O`: the cell number change is 1.78%. In addition, the concentration at half-maximal activity (AC50) under setting [1] is 36.6 µM [falling, partial curve, poor fit].

Consider `Cc1ccc(-c2cc(C(F)F)n3ncc(C(=O)N4CCCCC4c4cccnc4)c3n2)cc1` (stereo not given), for which the cell number change came out at 44.9%. For the same compound, the AC50 under setting [2] was 29.1 µM [rising, single point]. Moreover, the AC50 under setting [1] is 29.1 µM [rising, single point].

Take `COc1cc([C@H]2c3c(cc(OC)c(O)c3OC)C[C@@H](CO)[C@@H]2CO[C@@H]2O[C@H](CO)[C@@H](O)[C@H](O)[C@H]2O)cc(OC)c1O`: the cell number change was -28.2%. For the same compound, under setting [1], the AC50 is 0.206 µM [falling, full curve, poor fit].

In the case of `Cc1nc(SCC(N)=O)[nH]c(=O)c1Cc1ccc(OC(C)C)cc1`, the cell number change was -26.8%.
